Source: PubChem BioAssay AID2417 (National Center for Advancing Translational Sciences (NCATS), 2010)
Among all 140,000 compounds or so, about 4,300 (3.1%) were called active. The inconclusive results got no clear call from the source; some entries with a clear call stand among them for comparison.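 Rule for the calls: active = readout at or below -70, meaning at least 70% loss of cells showing the perinucleolar compartment, a nuclear body marking cancer cells; inconclusive = readout between -30 and a set limit; inactive = the rest.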

experiment: High Content Assay for Compounds that inhibit the Assembly of the Perinucleolar Compartment; conditions: PC3M PTB-GFP, PNC prevalence imaging, 16 h; at 10 µM; hits give low values;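 note: plate controls were DMSO wells for no effect and camptothecin positive control wells for full effect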
How it was run: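 Compounds are pinned in duplicate onto adhered PC3M cells stably expressing GFP-tagged PTB and incubated 16 h at 37 C. Cells are then fixed, nuclei stained with Hoechst, and PNC-positive cells counted.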

Compound	activity change (PNC), negative = inhibition
Cc1cc(CN2CCOCC2)c(O)c(C2(C)CCCCC2)c1	inconclusive: -62.7%
CCOC(=O)N1CCC(NC(=O)CSCc2nc(-c3cccc(OC)c3)oc2C)CC1	inactive: 19%
O=[N+]([O-])c1ccc(-c2ccc(/C=N/c3c(-c4ccco4)nc4ccccn34)o2)c(Cl)c1	inactive: 20.4%
O=C(CCN1CCc2ccccc2C1)c1ccc2c(c1)OCCO2	inconclusive: -79.7%
Cc1ccc(C(=O)O/N=C2\CCS(=O)(=O)c3sccc32)cc1	inconclusive: -31.7%
COc1ccccc1N1CCN(c2nc(C)nc3c2oc2ccccc23)CC1	active: -102%
CCS(=O)(=O)NCc1csc(-c2ccccc2)n1	inconclusive: -38.2%
COc1ccc(/C(C)=C(\C#N)C(=O)OC(C)C)cc1OC	inconclusive: -42.5%
O=C(Cn1ccc(C(F)(F)F)n1)N/N=C/c1ccc2c(c1)OCO2	inconclusive: -39.8%
CCOC(=O)c1c(NC(=O)CSc2nnc(CNc3ccc(C)cc3C)o2)sc(C)c1C	inconclusive: -37.8%
NC(=O)CSc1nnc(Cc2csc(Nc3ccc(F)cc3)n2)n1Cc1ccccc1	inconclusive: -45.8%
COC(=O)c1ccc(N2C(=O)CC(NCc3ccccc3)C2=O)cc1 (configuration not stated)	inactive: 0.598%
Cc1ccc(/C=N/Nc2ccnc3cc(Cl)ccc23)c(C)c1	inconclusive: -30.6%
O=C(CSc1nc2ncccc2[nH]1)c1ccc(F)cc1	inactive: -14.4%
COc1cc2c(cc1NC(=O)COC(=O)[C@@H](NC(=O)c1ccccc1)C(C)C)oc1ccccc12	inconclusive: -58.7%
Cc1cccc(NC(=S)NC(NC(=O)c2ccco2)C(Cl)(Cl)Cl)c1 (configuration not stated)	inconclusive: -66.5%
Cc1ccc(S(=O)(=O)N2CCOCC2)cc1C(=O)NCc1ccc(F)cc1	inconclusive: -74.9%
Cc1ccc(NC(=S)N/N=C/c2c(C)nn(-c3ccccc3)c2N2CCCC2)cc1	inactive: -25%
Cc1ccc(OCCn2cc(/C=N/NC(=O)c3ccncc3)c3ccccc32)cc1	inconclusive: -37.6%
O=C(OCc1nc2ccccc2s1)c1ccc(Br)s1	inconclusive: -40.8%
COc1ccc2nc(Nc3sc4c(c3C(N)=O)CCCC4)sc2c1	inactive: -9.38%
Cc1cc(=O)[nH]c(N/N=C/c2cccs2)n1	inconclusive: -49.1%
COc1cc([C@@H]2[C@H]3CN(C)CC=C3C(C#N)=C(N)C2(C#N)C#N)cc2c1OCO2	active: -98.5%

Compound	activity change (PNC), negative = inhibition
Cc1cc(OCC(=O)NC(C)(C)C)ccc1Cl	inconclusive: -37.2%
CCc1ccc(C(=O)N/N=C/c2cccc3ccccc23)nc1	inactive: 5.97%
COc1ccc(CNc2nc(NCc3ccc(OC)cc3)n(S(C)(=O)=O)n2)cc1	inconclusive: -54.5%
Clc1cccc(OCCN2CCOCC2)c1	inactive: -4.86%
COc1ccccc1NC(=O)CN1CCN(S(=O)(=O)c2ccc(Br)cc2)CC1	inconclusive: -74.7%
COc1cc2c(cc1OC)CN(c1nc(CN3CCOCC3)nc3sc4c(c13)CCCC4)CC2	inactive: -6.11%
Cc1nnc(NC(=O)Nc2cccc(Cl)c2)s1	inactive: 0.0382%
CCOC(=O)c1c(NC(=O)CSc2cn(CC)c3ccccc23)sc2c1CCC2	inconclusive: -47.6%
CC(=O)c1ccc(-n2nnnc2SCC(=O)N2CCc3ccccc3C2)cc1	active: -81.5%
COC(=O)/C=C1/S/C(=N/NC(=O)c2ccccc2C)NC1=O	inconclusive: -48%
CC1Nc2nc(NC(=O)C(C)(C)C)[nH]c(=O)c2N(C)C1C (configuration not stated)	inactive: 37.3%
Cc1cc(N2CCOCC2)nc2ccc(NC(=O)CCC(=O)N3CCC(C)CC3)cc12	inconclusive: -49.4%
CC(C)SCc1nc2ccccc2[nH]1	inconclusive: -49.5%
CCOC(=O)NC(NC(=O)OCC)C(=O)c1ccccc1	inconclusive: -38.6%
O=C(NCCCN1CCCC1=O)C1CCN(S(=O)(=O)N2CCOCC2)CC1	active: -83.8%
COc1ccccc1/C=C(/CC(=O)NCc1ccc2c(c1)OCO2)c1nc2ccccc2s1	inconclusive: -71.1%
CCOc1ccc(OCCCCN2CCCC2)cc1	inactive: -5.57%
CC(=O)Oc1ccc(C(=O)Cc2ccccn2)c(O)c1	inconclusive: -43.1%
COc1cccc(C2=NOC(C(=O)N3CCN(Cc4ccccc4)CC3)C2)c1OC (configuration not stated)	inconclusive: -32.4%
CCCN1CC23C=CC(O2)C(C(=O)O)C3C1=O (configuration not stated)	inactive: -4.47%
Brc1ccc(-c2nc(-c3ccncc3)no2)o1	active: -89%
Cc1cc(C)c(N2C(=NC(=O)CCCC(=O)O)SC3CS(=O)(=O)CC32)c(C)c1 (configuration not stated)	inconclusive: -40.6%
O=C1CCCC(=NCc2ccco2)C1	inconclusive: -39.1%

Compound	activity change (PNC), negative = inhibition
COc1cc(NS(=O)(=O)c2ccc(NC(=S)NC(=O)c3cccs3)cc2)nc(OC)n1	inconclusive: -58.2%
O=C(N/C(=C/c1ccco1)C(=O)N1CCCC1)c1cccs1	active: -106%
CCN(CC)S(=O)(=O)c1ccc(Cl)c(NC(=O)c2cc(Cl)ccc2Cl)c1	inconclusive: -33.7%
COc1cc(/C=N/NC(=O)CN2CCCCC2)ccc1OCc1ccccc1	inactive: 7.23%
COc1ccc(C2C(C(=O)N3CC(C)CC(C)C3)c3ccccc3C(=O)N2C)cc1 (configuration not stated)	inactive: 103%
NC(=O)COC(=O)CCCc1c[nH]c2ccccc12	inconclusive: -44%
O=C(NCCc1ccco1)c1nn(Cc2ccccc2)c(=O)c2ccccc12	inconclusive: -37.3%
CCN1C(=O)CS/C1=C(\C#N)S(=O)(=O)c1ccccc1	inactive: 16.1%
COc1ccc(NC(=O)c2ccc(N(C)S(C)(=O)=O)cc2)cc1OC	inconclusive: -37.7%
CN1C(=O)/C(=C\c2cc(N=Nc3ccccc3)ccc2O)SC1=S	inactive: 10.9%
O=C(N/N=C/c1cn(-c2ccccc2)nc1-c1cccs1)c1ccccc1F	inactive: 34.7%
COC(=O)c1cc(NC(=O)Cc2ccccc2[N+](=O)[O-])cc(C(=O)OC)c1	inconclusive: -50.6%
Cc1ccc(S(=O)(=O)c2nc(-c3ccc(F)cc3)oc2SCC(=O)NCC2CCCO2)cc1 (configuration not stated)	inconclusive: -63.3%
O=C(O)c1ccc2c(c1)C(=O)N(CCC1=CCCCC1)C2=O	inconclusive: -40.1%
Cc1ccc(C)c(NC(=O)c2ncn[nH]2)c1	inconclusive: -33.1%
COC(=O)C1C(=O)C=C(Nc2ccc(F)cc2F)CC1c1ccccc1 (configuration not stated)	inactive: -12.4%
CCOC(=O)N1CCN(c2ncnc3c2oc2nc(C(C)C)c4c(c23)CCC4)CC1	inactive: 12.3%
CN(C)c1ccc(CNCCC2CCOC(C)(C)C2)cc1 (configuration not stated)	inactive: 24.7%
CC(=O)c1ccc(NC(=O)COC(=O)CCC(=O)c2cccs2)cc1	inconclusive: -46%
CCCn1c2c(c(O)c(C(=O)Nc3ncccc3C)c1=O)CCCC2	inconclusive: -45.3%
CCCn1c(NC(=S)Nc2ccccc2)nc2ccccc21	inconclusive: -45.9%
COc1ccc(S(=O)(=O)NCCSc2ccccc2)cc1OC	inactive: -11.2%
Cc1ccc(C(=O)NCc2ccccc2)cc1Br	inactive: 38.8%

Among those listed so far, these have a nitro group on carbon.
Compound	activity change (PNC), negative = inhibition
O=[N+]([O-])c1ccc(-c2ccc(/C=N/c3c(-c4ccco4)nc4ccccn34)o2)c(Cl)c1	inactive: 20.4%
COC(=O)c1cc(NC(=O)Cc2ccccc2[N+](=O)[O-])cc(C(=O)OC)c1	inconclusive: -50.6%

The list continues:

Compound	activity change (PNC), negative = inhibition
CCC/C(O)=C1\C(=O)CCCC1=NCCCCCC(=O)O	inconclusive: -46%
CCC1(CC)Cc2ccccc2-c2nc(CN3CCOCC3)[nH]c(=O)c21	inconclusive: -56.8%
Cc1cccc(N(C2C=CS(=O)(=O)C2)S(=O)(=O)c2ccccc2)c1 (configuration not stated)	inconclusive: -56.7%
Cc1cc(-n2ccc(=O)[nH]c2=O)nc(-c2ccccc2)n1	inconclusive: -47.5%
CC(NS(=O)(=O)c1ccc(F)cc1)C(=O)NCc1ccncc1 (configuration not stated)	inconclusive: -31%
O=C(Nc1ccc(-c2noc(CCc3ccccc3)n2)cc1)c1ccco1	active: -89.3%
COc1ccc(CN2C(=O)C3C4C=CC(C4)C3C2=O)cc1 (configuration not stated)	inconclusive: -31.1%
Cc1ccc(OCCCn2ccnc2)c([N+](=O)[O-])c1	inconclusive: -62.8%
Nc1ccc2[nH]ncc2c1	inactive: 12.3%
Cc1[nH]nc2c1C(c1ccc(F)cc1)C1=C(CC(C)(C)CC1=O)N2 (configuration not stated)	inactive: 38.2%
CCN(CC)CCCn1c(=S)[nH]c2cc(Cl)ccc2c1=O	inconclusive: -56.7%
Cn1c(=O)[nH]c(=O)c2c1nc(NCCCn1ccnc1)n2Cc1ccccc1	active: -102%
Cc1ccc(NC(=O)/C(Cl)=C\c2ccccc2)cc1	inactive: -29.9%
CCN1CCN(C(=O)Nc2cccc(C(F)(F)F)c2)CC1	active: -123%
O=C(O)c1cccc(Nc2nc(N3CCOCC3)nc(N3CCOCC3)n2)c1	inconclusive: -32%
Cc1cc(C(=O)O)cc(S(=O)(=O)N2CCOCC2)c1C	active: -86.9%
O=C(N/N=C/c1cccc(O)c1)c1csc2ccccc12	inconclusive: -48%
Cc1cccc(NC(=O)CSc2nnc(CNC(=O)c3ccc(S(=O)(=O)N(C)C)cc3)n2-c2ccc(F)cc2)c1	inactive: -5.94%
O=C(NC1CCCCC1)C(c1ccc2ncccc2c1)N(Cc1ccc2c(c1)OCO2)C(=O)c1ccc2c(c1)OCCO2 (configuration not stated)	inactive: -24.5%
CS(=O)(=O)NCCSCc1ccco1	active: -81.9%
COCCSc1nnc(NS(=O)(=O)Cc2ccccc2)s1	inconclusive: -51.6%
Nc1c(C(=O)NCCN2CCOCC2)c2nc3ccccc3nc2n1-c1ccccc1	inconclusive: -56.2%
O=C(O)CCCNS(=O)(=O)Cc1ccccc1	inconclusive: -34.7%

Looked up above:
`CC(=O)c1ccc(-n2nnnc2SCC(=O)N2CCc3ccccc3C2)cc1` – activity change (PNC), negative = inhibition: active: -81.5%
`COc1cc2c(cc1OC)CN(c1nc(CN3CCOCC3)nc3sc4c(c13)CCCC4)CC2` – activity change (PNC), negative = inhibition: inactive: -6.11%
